These are yes or no findings as the source states them, for the method shown. Some results given as binding are weak or reduced against the parent protein; the word gives no strength. Values belong to the binder of their own block, whether it stands above or below them.
Experiments:
[1] = biological target: E292K-DAF-21 (C. elegans) (UniProt Q18688); experiment: condition: only without AMP-PNP (E292K-DAF-21 6 µM); AUC; sedimentation velocity with fluorescence detection; fluorescein-labelled cofactor 300 nM, DAF-21 or variant 6 µM; no nucleotide; 20 to 22°C, 42.000 r.p.m.; dc/dt analysis; both purified
DAF-21 (C. elegans) [2] = biological target: DAF-21 (C. elegans) (UniProt Q18688); experiment: AUC; sedimentation velocity with fluorescence detection; fluorescein-labelled cofactor 300 nM, DAF-21 or variant 6 µM; no nucleotide; 20 to 22°C, 42.000 r.p.m.; dc/dt analysis; both purified
DAF-21 (C. elegans) [3] = biological target: DAF-21 (C. elegans) (UniProt Q18688); experiment: AUC; sedimentation velocity with interference optics; UNC-45N 10 µM, unlabelled DAF-21 5 µM; dc/dt analysis; both purified

binding [1]: no binding
B1: Cep23 (ZC395.10), fluorescein-labelled (protein, UniProt Q23280 1-175)
chain: MAKQPTVLWAQRESLVYLTIEVDEAKIEELKGEGNKLHFQGSSKTDKYEATLEFFDEIDPASVKHTGSSTRVVEITVQKKTPAWWPRLLQNKGKVHWLKVDFGKWKDEDEDDEAEDAGAGIGGGMANGFDLNQYMSQMGGAGGADFGGLEDDEEDDDMPDLEDNEEEEGKNGTRA
modifications: 5-carboxyfluorescein (N-succinimidyl ester) at lysine residues
binding (DAF-21 (C. elegans) [2]): no binding (condition: without AMP-PNP (DAF-21 6 µM))

binding (DAF-21 (C. elegans) [3]): binds
B2: UNC-45N (aa 1-461) (domain or fragment, UniProt G5EG62 1-461)
chain: MVARVQTAEEIRDEGNAAVKDQDYIKADELYTEALQLTTDEDKALRPVLYRNRAMARLKRDDFEGAQSDCTKALEFDGADVKALFRRSLAREQLGNVGPAFQDAKEALRLSPNDKGIVEVLQRLVKANNDKIKQTTSLANKVTDMEKLAFRGEAKDTEQKMTALNNLLVLCRESESGATGVWNQGALVPFVLNLINDASENEEVTVTAIRILDETIKNSVRCMKFLAMHDPDGPKSVRFVCRLMCKKSTKDFVDATGILVQRVFNAMAKMDRQKEMKPDPEVAEANKIWIIRVLLELQEMLQDPKVGAVQRETCIDLFLKNLMHMDGGIPRGWSWKFVEERGLLALLDVASQIPELCEYPVSAETRQHVAICLQRLEEDMVFDTKRTIFKEKVDMFFNALISRCTNDDEGHKYRIKLSCFLITMLQGPVDIGINLITNDQLTPIMLEMAASQDHLMQGIAA
